# For at least one compound, name, drawing or mass did not settle the structure.
# What was measured:
# [1] = system: Human Acute Lymphoblastic Leukemia blasts in NSG mice
# Procedure: Procedure. The experimental design is schematized in FIG. 7A. Briefly, thirty-two (32) NOD.Cg-Prkdcscid I2rgtm1Wjl/SzJ (“NSG”) mice were injected intrafemorally with 500,000 leukemic blasts (2 injections/mouse) (Human Acute Lymphoblastic Leukemia). […] During and after treatment, mice were weighed weekly, and their welfare was evaluated daily. Blood samples were taken weekly for assessment of the leukemia burden. Termination was predefined with a leukemia burden reaching 50% leukemic blasts in peripheral blood as measured by flow cytometry or euthanasia because of overt signs of discomfort due to disease.
# The primary outcome of this experiment was event-free survival, where event was defined as […]. Differences in event-free survival were analyzed using a Kaplan-Meier plot and significance was tested using the log-rank test.
# [2] = system: 30 cell lines covering a variety of cancer cell types; assay: ApoTox-Glo Triplex Assay (viability, cytotoxicity, apoptosis), 3-4 days, panel; assay type: cell-based; conditions: e.g. Bladder, Glioblastoma and Hepatic cancer cells
# Procedure: Two incubation times were tested. […] Ibrutinib was the AADAS as detailed above.
# Cell culture conditions. Adherent tumor cells were grown as monolayer at 37° C. in a humidified atmosphere (5% CO2, 95% air). […] The cells were counted and their viability assessed by 0.25% trypan blue exclusion assay.
# Cell plating for 3 to 4 day incubation.
# Each compound was tested alone at 6 doses.
# Experiments were performed in duplicate.
# Two protocols of incubation were performed: overnight and over 3/4 days as indicated.
# The assay was performed as recommended by the manufacturer. […] The assay was performed as recommended by the manufacturer. […] Apoptosis was measured in luminescence.
compound,measurement,setting,value
C=CC(=O)N1CCC[C@@H](n2nc(-c3ccc(Oc4ccccc4)cc3)c3c(N)ncnc32)C1 [ibrutinib],leukemia development,[1]; human leukemic blasts in blood by flow cytometry,initially gave a growth retardation
same,response in the mouse xenograft model (in words),[1]; single block of treatment (9 days),potentiated ASNase therapy response in vivo
same,responsiveness of the cells,[2],not responsive

# — patent US20220362357A1, “Synergistic Combinations of Amino Acid Depletion Agent Sensitizers (AADAS) and Amino Acid Depletion Agents (AADA), and Therapeutic Methods of Use Thereof” (STICHTING RADBOUD UNIVERSITAIR MEDISCH CENTRUM, priority 2018, published 2022)
